Measurements taken from publication PMC12748351, “The TDG protein environment connects active DNA demethylation with chromatin and RNA biology”.

Amino acid sequences for entries named in this document (tags omitted).
UniProt P56581: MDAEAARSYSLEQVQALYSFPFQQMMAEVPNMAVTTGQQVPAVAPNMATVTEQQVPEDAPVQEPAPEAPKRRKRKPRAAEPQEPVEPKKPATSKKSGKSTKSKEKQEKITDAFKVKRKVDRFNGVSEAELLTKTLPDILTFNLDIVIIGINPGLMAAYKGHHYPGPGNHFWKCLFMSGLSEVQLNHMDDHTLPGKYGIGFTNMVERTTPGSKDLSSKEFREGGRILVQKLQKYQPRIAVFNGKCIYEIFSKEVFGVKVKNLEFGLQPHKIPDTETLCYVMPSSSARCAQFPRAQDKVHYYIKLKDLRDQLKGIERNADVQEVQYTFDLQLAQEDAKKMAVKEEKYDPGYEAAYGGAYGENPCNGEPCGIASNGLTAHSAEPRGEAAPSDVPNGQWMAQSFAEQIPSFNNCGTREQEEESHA

Tests used:
[1] = biological target: TDG-BirA* fusion protein, HA-tagged (pPgk-mTDGa-BioID2-HA), stably expressed in mESC (murine) (UniProt P56581); test: proximity labelling; BioID2-MS in mESC stably expressing TDG-BirA*; 60 µM biotin for 48 h; nuclear fraction; approach B: high-salt extraction with Benzonase, streptavidin beads washed with SDS and high-salt buffers; enriched over NLS-BirA* and no-BirA* (nucleolar proteins: over no-BirA* only)
[2] = biological target: TDG-BirA* fusion protein, HA-tagged (pPgk-mTDGa-BioID2-HA), stably expressed in mESC (murine) (UniProt P56581); test: proximity labelling; BioID2-MS in mESC stably expressing TDG-BirA*; 60 µM biotin for 48 h; nuclear fraction; approach A: lysis and streptavidin purification in denaturing urea buffers; enriched over NLS-BirA* and no-BirA* (nucleolar proteins: over no-BirA* only)

B1: PSPC1 (protein, UniProt Q8R326 1-523)
chain: MMLRGNLKQVRIEKNPARLRALESAAGESEPVAAAAMALTLAGEQAPPPAPSEEHPDEELGFTIDIKSFLKPGEKTYTQRCRLFVGNLPTDITEEDFKRLFERYGEPSEVFINRDRGFGFIRLESRTLAEIAKAELDGTILKSRPLRIRFATHGAALTVKNLSPVVSNELLEQAFSQFGPVEKAVVVVDDRGRATGKGFVEFAAKPPARKALERCGDGAFLLTTTPRPVIVEPMEQFDDEDGLPEKLMQKTQQYHKEREQPPRFAQPGTFEFEYASRWKALDEMEKQQREQVDRNIREAKEKLEAEMEAARHEHQLMLMRQDLMRRQEELRRLEELRNQELQKRKQIQLRHEEEHRRREEEMIRHREQEELRRQQEGGFKPNYMENREQEMRMGDMGPRGAINMGDAFSPAPAGTQGPPPMMGMNMNNRGTIPGPPMGPGPAMGPEGAANMGTPMIPDNGAVHNDRFPQGPPSQMGSPMGNRTGSETPQAPMSGVGPVSGGPGGFGRGSQGGNFEGPNKRRRY
[1]
  binding: binds
[2]
  binding: binds

These are yes or no findings as the source states them, for the method shown. Binding seen in cells or lysates may run through a third protein. Here binding means that the protein was enriched with, or labelled near, the bait; the list need not be complete.
